Results are given in words; binding and its absence hold for the method and conditions named. In cells and extracts the contact can be indirect. Binding can be weak; no strength is given. Where a sequence is shown, tags or fusion partners need not be part of it.
Target: T1, NRPB4-NLUC (UniProt O48890)
T1 sequence: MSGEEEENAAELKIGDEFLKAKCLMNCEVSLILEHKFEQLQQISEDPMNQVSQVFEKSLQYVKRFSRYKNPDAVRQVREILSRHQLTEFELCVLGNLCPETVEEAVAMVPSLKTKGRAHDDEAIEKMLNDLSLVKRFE
Test: split reporter; firefly luciferase complementation imaging; NLUC and CLUC fusions transiently co-expressed in tobacco leaves, imaged about 48 h after infiltration with luciferin

Row | binding | Substance
1 | binds | SC35 fused to a firefly luciferase fragment (CLUC-SR) (Arabidopsis thaliana)
2 | binds | SCL30a fused to a firefly luciferase fragment (CLUC-SR) (Arabidopsis thaliana)

More lines, now with the values behind:

Row | Substance | binding
3 | SCL28 fused to a firefly luciferase fragment (CLUC-SR) (Arabidopsis thaliana) | binds
4 | SCL30 fused to a firefly luciferase fragment (CLUC-SR) (Arabidopsis thaliana) | binds
5 | SCL33 fused to a firefly luciferase fragment (CLUC-SR) (Arabidopsis thaliana) | binds

From article PMC5362245, “Depletion of Arabidopsis SC35 and SC35-like serine/arginine-rich proteins affects the transcription and splicing of a subset of genes”
